Data published in PubChem BioAssay AID1487 (National Center for Advancing Translational Sciences (NCATS), 2009).
The list shows a part of the results. Shown are side measurements of this screen, not its main read-out; they come without a call. The list favours compounds with an active or inconclusive main result. Words in brackets tell the shape of the fitted curve; partial curves, single points and poor fits give uncertain potencies.

Test: qHTS Assay for Modulators of Lamin A Splicing
Conditions: HeLa LMNA splicing GFP/RFP minigene ratio, 48 h
How it was run: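 Read-out is the ratio of GFP to DsRed2 object intensity, acquired by 488 nm laser-scanning cytometry on HeLa lamin A-EGFP minigene reporter cells. Compound incubation 48 hrs at 37 °C in Opti-MEM with 2% FBS; DMSO 0.5% final.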

[1] = measured here: GFP splicing reporter channel
[2] = measured here: RFP viability control channel

Row | Structure (SMILES) | AC50 [1] | AC50 [2]
1 | CCOC(=O)NC(NCc1ccccc1)(C(F)(F)F)C(F)(F)F | 35.5 µM [falling, single point] | –
2 | CCOc1cc(/C=C2\C(=O)N(c3ccc(C(N)=O)cc3)N=C2C)ccc1OC(=O)c1cccs1 | 14.1 µM [falling, single point] | 22.4 µM [falling, partial curve, poor fit]
3 | CC(Nc1ncnc2c1cnn2-c1cccc(Cl)c1)c1ccccc1 (stereo not given) | 12.6 µM [falling, partial curve] | 25.1 µM [falling, single point]
4 | COc1ccc(CSCCNC(=S)Nc2ccccc2)cc1Cl | 1.26 µM [falling, full curve, poor fit] | –
5 | Cc1cc(NC(=O)c2ccccc2F)n(C(C)(C)C)n1 | 0.0631 µM [rising, full curve, poor fit] | –
6 | Cc1cc(C(=O)OCC(=O)N2CC(=O)Nc3ccccc32)c(C)n1-c1ccccc1 | 31.6 µM [rising, single point] | 35.5 µM [rising, single point]
7 | O=C(Oc1ccc2c(=O)c(Oc3ccc4ccccc4c3)coc2c1)c1cccnc1 | – | 20 µM [rising, single point]
8 | O=[N+]([O-])c1ccc(N2CCN(S(=O)(=O)Cc3ccccc3)CC2)cc1N1CCOCC1 | – | 35.5 µM [rising, single point]
9 | CCCc1cc(C(N)=S)ccn1 | 35.5 µM [falling, single point] | 0.794 µM [falling, single point]
10 | Cc1ccc(F)cc1NC(=O)C1CC(=O)N(CCc2ccccc2)C1 (stereo not given) | – | 3.98 µM [falling, full curve]
11 | c1ccc(-c2nc(NCc3ccco3)c3ccccc3n2)nc1 | – | 31.6 µM [rising, single point]
12 | Cc1ccccc1OS(=O)(=O)c1cn(C)c(=O)n(C)c1=O | 0.398 µM [rising, full curve, poor fit] | 0.126 µM [rising, full curve, poor fit]
13 | Cc1ccc(NC(=O)c2ccccc2OCC(=O)Nc2cccc(Cl)c2C)nc1 | 35.5 µM [falling, single point] | –
14 | Fc1ccccc1/C=C1\CCCC2=C1Nc1nnnn1C2c1ccccc1F (stereo not given) | 17.8 µM [falling, single point] | 22.4 µM [falling, single point]
15 | CCC(=O)NC(/C=C/c1ccccc1)c1cc([N+](=O)[O-])c2cccnc2c1O (stereo not given) | – | 2.51 µM [rising, full curve]
16 | Cc1ccc(/C=N\NC(=O)Cn2c(C)nc3ccccc32)o1 | 10 µM [rising, partial curve] | 11.2 µM [rising, partial curve]
17 | Cc1ccc(NC(=O)c2ccc(Cl)c(N3C(=O)C=CC3=O)c2)cc1 | 12.6 µM [falling, single point] | 0.891 µM [falling, single point]
18 | CCN(CC)CCNC(=O)c1ccc(NC(=O)c2cn(-c3ccccc3)nc2-c2cccs2)cc1 | 22.4 µM [falling, single point] | 35.5 µM [falling, single point]
19 | COc1cccc(-c2csc(N3CCN(C(=O)C4CCCCC4)CC3)n2)c1 | – | 12.6 µM [rising, single point]
20 | O=S(=O)(c1ccc2c(c1)C(=NO)c1cc(S(=O)(=O)N3CCCCC3)ccc1-2)N1CCCCC1 | 0.891 µM [falling, full curve] | 0.891 µM [falling, full curve]
21 | CCOc1ccc(NC(=O)c2cnn3c2NC(c2ccccc2)=CC3c2cccc(OC)c2OC)cc1 (stereo not given) | 1.41 µM [rising, full curve, poor fit] | 1.41 µM [rising, full curve]
22 | Cc1ccc(C(=O)c2cc([N+](=O)[O-])ccc2N2CCOCC2)cc1C | – | 3.55 µM [rising, partial curve]
23 | O=C(Nc1nc(-c2ccc3c(c2)OCCO3)cs1)c1ccc(S(=O)(=O)N2CCCCC2)cc1 | 8.91 µM [rising, partial curve] | 6.31 µM [rising, full curve]
24 | COc1cccc(C(=O)NN/C(C)=C/C(=O)C(F)(F)C(F)(F)C(F)(F)F)c1 | – | 11.2 µM [rising, partial curve, poor fit]
25 | CN(C)c1ccc(-c2cncnc2NCCc2cnc[nH]2)cc1 | 10 µM [falling, partial curve] | 2.82 µM [falling, full curve, poor fit]
26 | Cc1ccc(C(=O)N2CCc3cc(CNC(=O)c4ccccc4F)ccc32)cc1 | 0.0224 µM [falling, full curve, poor fit] | 7.94 µM [falling, full curve, poor fit]

Row | Structure (SMILES) | AC50 [1] | AC50 [2]
27 | O=c1c2ccccc2nnn1CSc1ccc2ccccc2n1 | – | 31.6 µM [rising, single point]
28 | Cc1ccccc1OC1C(=O)N(Cc2ccc3c(c2)OCO3)C1c1sccc1C (stereo not given) | 35.5 µM [falling, single point] | 35.5 µM [falling, partial curve]
29 | O=C(CS(=O)(=O)c1ccc(Cl)cc1)Nc1nc2ccc(Br)cc2s1 | 35.5 µM [falling, single point] | 35.5 µM [falling, single point]
30 | Cc1nc(NC(=O)c2ccco2)sc1-c1csc(Nc2ccc(Cl)cc2Cl)n1 | – | 5.01 µM [falling, partial curve]
31 | Cc1ccc(-n2ncc3c(N4CCN(Cc5ccccc5)CC4)ncnc32)cc1C | 10 µM [falling, partial curve, poor fit] | 1.58 µM [falling, partial curve, poor fit]
32 | O=C(N/N=C/c1cc([N+](=O)[O-])ccc1O)C1C2CCCCC21 (stereo not given) | 8.91 µM [falling, partial curve, poor fit] | 11.2 µM [falling, partial curve, poor fit]
33 | CCCCCOC(=O)C1=C(C)NC(=O)NC1c1ccccc1OCC (stereo not given) | 20 µM [rising, partial curve, poor fit] | 31.6 µM [rising, single point]
34 | CCOCCc1nn2c(=O)cc(COC(=O)c3ccccc3Br)nc2s1 | – | 3.55 µM [falling, partial curve, poor fit]
35 | CC(C)(C)N(NC(=O)OCc1ccccc1)C(=O)c1ccccc1Cl | 3.55 µM [rising, single point] | 5.62 µM [rising, single point]
36 | Cc1ccc(CNC(=O)C(=O)NCC(c2cccs2)S(=O)(=O)c2ccccc2)cc1 (stereo not given) | 5.62 µM [rising, single point] | –
37 | N/C(=N\OC(=O)c1cc(Cl)ccc1Cl)c1ccccn1 | – | 1.41 µM [rising, full curve, poor fit]
38 | O=C(Nc1ccccn1)NC12CC3CC(CC(C3)C1)C2 | 5.62 µM [falling, single point] | 1.78 µM [rising, partial curve]
39 | Cc1ccc(S(=O)(=O)c2c(C)nn(C(C)(C)C)c2OC(=O)c2ccc(Br)o2)cc1 | 7.08 µM [falling, partial curve] | 7.94 µM [falling, partial curve]
40 | O=C(Nc1ccc(N2CCCCC2)cc1)c1ccc2c(c1)OCCO2 | 31.6 µM [rising, single point] | 17.8 µM [rising, single point]
41 | COC(=O)c1cc(C(=O)c2cc(Cl)ccc2O)coc1=N | 0.0708 µM [rising, full curve, poor fit] | 0.282 µM [rising, full curve, poor fit]
42 | O=C(CCCN1C(=O)c2ccccc2C1=O)NCC1CCCO1 (stereo not given) | – | 5.62 µM [falling, single point]
43 | COCCNC(=S)NCc1cccs1 | – | 0.0316 µM [falling, full curve, poor fit]
44 | COc1cc(OC)cc(C(=O)NC(=S)NNC(=O)Cc2cccs2)c1 | – | 12.6 µM [rising, partial curve]
45 | Cc1ccc(C(=O)Nc2cccc(C(=O)NCc3ccccc3)c2)cc1 | – | 6.31 µM [rising, single point]
46 | COC(=O)c1c(-c2ccccc2)csc1N | 7.08 µM [rising, partial curve] | 14.1 µM [rising, partial curve]
47 | Clc1ccc(Cl)c(OCCCCNCc2ccccc2)c1 | 10 µM [rising, partial curve] | –
48 | CCOc1ccc(C(C)NC(=O)c2ccccc2F)cc1 (stereo not given) | 10 µM [rising, partial curve, poor fit] | 10 µM [rising, partial curve, poor fit]
49 | O=C(COc1ccc(F)cc1)NCc1ccc2c(c1)CCN2C(=O)c1ccc(F)cc1 | 6.31 µM [rising, partial curve] | 10 µM [rising, partial curve, poor fit]
50 | Cc1cccc(OCC(=O)Nc2ccc(S(=O)(=O)N(Cc3ccccc3)c3ccccc3)cc2)c1 | – | 11.2 µM [rising, partial curve]
51 | Cc1cc(-n2c(C)nc3ccccc3c2=O)ccc1NC(=O)c1cccc([N+](=O)[O-])c1C | – | 5.62 µM [rising, single point]
52 | O=C(NCc1ccccc1)N1CCN(c2ccc(Cl)c(Cl)c2)CC1 | 12.6 µM [rising, partial curve, poor fit] | 14.1 µM [rising, partial curve]

Record cards, from the list above. Order of values: AC50 [1] | AC50 [2]
COC(=O)c1c(-c2ccccc2)csc1N is listed with 7.08 µM [rising, partial curve] | 14.1 µM [rising, partial curve]
Cc1ccc(CNC(=O)C(=O)NCC(c2cccs2)S(=O)(=O)c2ccccc2)cc1 (stereo not given) is listed with 5.62 µM [rising, single point] | –

A draw from above in order of molecular weight, rising.
Row | Structure (SMILES) | AC50 [1] | AC50 [2]
32 | O=C(N/N=C/c1cc([N+](=O)[O-])ccc1O)C1C2CCCCC21 (stereo not given) | 8.91 µM [falling, partial curve, poor fit] | 11.2 µM [falling, partial curve, poor fit]
40 | O=C(Nc1ccc(N2CCCCC2)cc1)c1ccc2c(c1)OCCO2 | 31.6 µM [rising, single point] | 17.8 µM [rising, single point]
35 | CC(C)(C)N(NC(=O)OCc1ccccc1)C(=O)c1ccccc1Cl | 3.55 µM [rising, single point] | 5.62 µM [rising, single point]
